The record followed here is article PMC3856536.

By UniProt entry, the sequences of proteins in these tests, tags left out.
UniProt P35222: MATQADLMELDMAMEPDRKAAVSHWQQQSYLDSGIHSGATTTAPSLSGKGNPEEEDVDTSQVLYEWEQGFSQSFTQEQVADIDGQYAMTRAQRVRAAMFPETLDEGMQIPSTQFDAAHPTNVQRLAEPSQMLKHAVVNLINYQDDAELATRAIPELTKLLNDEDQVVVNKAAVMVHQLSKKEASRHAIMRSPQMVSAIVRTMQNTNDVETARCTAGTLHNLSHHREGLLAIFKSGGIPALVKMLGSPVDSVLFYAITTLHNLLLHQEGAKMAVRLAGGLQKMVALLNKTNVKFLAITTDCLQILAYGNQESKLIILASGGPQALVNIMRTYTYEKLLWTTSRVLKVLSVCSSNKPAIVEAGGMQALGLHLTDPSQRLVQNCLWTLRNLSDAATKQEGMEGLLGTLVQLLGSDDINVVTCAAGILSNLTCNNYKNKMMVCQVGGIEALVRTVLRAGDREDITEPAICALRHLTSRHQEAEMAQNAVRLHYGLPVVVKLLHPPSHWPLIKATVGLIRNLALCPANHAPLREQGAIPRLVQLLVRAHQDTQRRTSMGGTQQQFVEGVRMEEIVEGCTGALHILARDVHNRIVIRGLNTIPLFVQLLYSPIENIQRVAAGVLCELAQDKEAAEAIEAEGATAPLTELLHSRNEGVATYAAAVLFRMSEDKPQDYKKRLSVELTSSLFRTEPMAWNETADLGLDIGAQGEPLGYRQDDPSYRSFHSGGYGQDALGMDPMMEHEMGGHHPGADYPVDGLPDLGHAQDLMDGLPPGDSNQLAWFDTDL

Results are given in words; binding and its absence hold for the method and conditions named. Binding seen in cells or lysates may run through a third protein. Some entries that bind do so weakly or less than the wild type.

The target of assay [1] is T1, Protein Ser/Thr phosphatase-6 catalytic subunit (PP6c), endogenous in Caco-2 cells (human (endogenous in Caco-2)) (UniProt O00743).
T1 sequence: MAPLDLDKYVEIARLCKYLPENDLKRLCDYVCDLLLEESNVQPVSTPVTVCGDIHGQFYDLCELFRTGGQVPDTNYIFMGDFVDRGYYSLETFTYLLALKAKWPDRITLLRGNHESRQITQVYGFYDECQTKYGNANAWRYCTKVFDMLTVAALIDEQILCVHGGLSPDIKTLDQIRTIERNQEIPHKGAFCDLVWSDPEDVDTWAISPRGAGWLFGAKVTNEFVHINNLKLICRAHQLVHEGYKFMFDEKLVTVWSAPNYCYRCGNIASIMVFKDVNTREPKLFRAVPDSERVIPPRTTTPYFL
In words: co-IP; anti-PP6c antibody cross-linked to protein G-agarose beads, cytosolic fraction of Caco-2 cells (MOPS buffer); non-immune IgG as control; immunoblot.

Assay [2] addresses T1, Protein Ser/Thr phosphatase-6 catalytic subunit (PP6c), endogenous in Caco-2 cells (human (endogenous in Caco-2)). Kind of assay: co-IP; anti-PP6c antibody cross-linked to protein G-agarose beads, membrane fraction of Caco-2 cells (MOPS buffer with 1% Nonidet P-40); non-immune IgG as control; immunoblot.

For “β-catenin, endogenous in Caco-2 cells (from UniProt P35222 1-781)”, the binding entry was “no binding (condition: in the cytosolic fraction)” in assay [1] and “binds” in assay [2].
